Data taken from paper PMC2422854.
These are yes or no findings as the source states them, for the method shown. Some results given as binding are weak or reduced against the parent protein; the word gives no strength. Tags and fused reporters may be left off the sequences shown.

Columns and labels:
[1] = target: T1, TTG1–YFP fused to the GAL4 DNA-binding domain (Arabidopsis thaliana) (UniProt Q9XGN1); test: two-hybrid; yeast two-hybrid; GL3 fused to the GAL4 activation domain (pACT), TTG1 and TTG1–YFP fused to the GAL4 DNA-binding domain (pAS); no self-activation; unpublished data
T1 sequence: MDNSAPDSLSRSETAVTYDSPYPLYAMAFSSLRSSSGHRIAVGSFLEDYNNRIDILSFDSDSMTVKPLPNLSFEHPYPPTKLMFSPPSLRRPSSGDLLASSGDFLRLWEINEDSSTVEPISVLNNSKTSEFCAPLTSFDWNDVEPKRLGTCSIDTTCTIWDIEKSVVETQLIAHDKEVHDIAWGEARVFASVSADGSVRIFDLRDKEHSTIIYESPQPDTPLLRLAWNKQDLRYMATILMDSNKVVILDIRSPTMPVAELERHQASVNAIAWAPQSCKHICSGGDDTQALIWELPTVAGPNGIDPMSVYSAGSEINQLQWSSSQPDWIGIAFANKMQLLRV

[2] = target: T2, … TESTA GLABRA1 (TTG1) fused to the GAL4 DNA-binding domain (Arabidopsis thaliana) (UniProt Q9XGN1); test: as above
T2 sequence: T1 sequence

binding [1]: binds
binding [2]: binds
B1: GLABRA3 (GL3) fused to the GAL4 activation domain (protein, UniProt Q9FN69 1-637)
chain: MATGQNRTTVPENLKKHLAVSVRNIQWSYGIFWSVSASQSGVLEWGDGYYNGDIKTRKTIQASEIKADQLGLRRSEQLSELYESLSVAESSSSGVAAGSQVTRRASAAALSPEDLADTEWYYLVCMSFVFNIGEGMPGRTFANGEPIWLCNAHTADSKVFSRSLLAKSAAVKTVVCFPFLGGVVEIGTTEHITEDMNVIQCVKTSFLEAPDPYATILPARSDYHIDNVLDPQQILGDEIYAPMFSTEPFPTASPSRTTNGFDQEHEQVADDHDSFMTERITGGASQVQSWQLMDDELSNCVHQSLNSSDCVSQTFVEGAAGRVAYGARKSRVQRLGQIQEQQRNVKTLSFDPRNDDVHYQSVISTIFKTNHQLILGPQFRNCDKQSSFTRWKKSSSSSSGTATVTAPSQGMLKKIIFDVPRVHQKEKLMLDSPEARDETGNHAVLEKKRREKLNERFMTLRKIIPSINKIDKVSILDDTIEYLQELERRVQELESCRESTDTETRGTMTMKRKKPCDAGERTSANCANNETGNGKKVSVNNVGEAEPADTGFTGLTDNLRIGSFGNEVVIELRCAWREGVLLEIMDVISDLHLDSHSVQSSTGDGLLCLTVNCKHKGSKIATPGMIKEALQRVAWIC
